No constants are given. Whether binding was seen depends on the method and setting. In cells and extracts the contact can be indirect. Here binding means that the protein was enriched with, or labelled near, the bait; the list need not be complete. For some assays here: No binding means not detected with the bait. For some assays here: Tags and fused reporters may be left off the sequences shown.

Amino acid sequences for entries named in this document (tags omitted).
UniProt Q9BUQ8: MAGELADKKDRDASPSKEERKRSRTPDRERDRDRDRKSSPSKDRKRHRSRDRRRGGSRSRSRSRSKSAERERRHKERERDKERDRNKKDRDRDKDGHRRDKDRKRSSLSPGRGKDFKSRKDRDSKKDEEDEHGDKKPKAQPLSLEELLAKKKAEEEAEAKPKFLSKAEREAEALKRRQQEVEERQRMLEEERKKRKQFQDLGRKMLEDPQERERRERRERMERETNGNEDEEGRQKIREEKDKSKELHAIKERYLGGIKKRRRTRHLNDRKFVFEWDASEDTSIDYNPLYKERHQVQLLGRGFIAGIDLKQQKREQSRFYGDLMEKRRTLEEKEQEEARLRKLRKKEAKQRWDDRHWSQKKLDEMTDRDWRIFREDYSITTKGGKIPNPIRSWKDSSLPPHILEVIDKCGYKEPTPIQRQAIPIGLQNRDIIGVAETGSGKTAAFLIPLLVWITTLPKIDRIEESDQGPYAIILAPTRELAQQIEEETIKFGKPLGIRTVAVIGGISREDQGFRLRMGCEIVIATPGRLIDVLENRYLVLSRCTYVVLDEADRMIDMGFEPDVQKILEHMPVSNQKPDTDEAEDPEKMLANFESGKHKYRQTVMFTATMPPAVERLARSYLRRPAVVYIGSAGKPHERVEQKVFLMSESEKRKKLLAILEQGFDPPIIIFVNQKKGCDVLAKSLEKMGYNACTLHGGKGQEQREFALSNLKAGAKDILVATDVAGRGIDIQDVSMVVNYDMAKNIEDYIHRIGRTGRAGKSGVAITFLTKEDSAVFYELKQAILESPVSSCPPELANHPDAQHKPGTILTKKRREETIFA
UniProt O75643: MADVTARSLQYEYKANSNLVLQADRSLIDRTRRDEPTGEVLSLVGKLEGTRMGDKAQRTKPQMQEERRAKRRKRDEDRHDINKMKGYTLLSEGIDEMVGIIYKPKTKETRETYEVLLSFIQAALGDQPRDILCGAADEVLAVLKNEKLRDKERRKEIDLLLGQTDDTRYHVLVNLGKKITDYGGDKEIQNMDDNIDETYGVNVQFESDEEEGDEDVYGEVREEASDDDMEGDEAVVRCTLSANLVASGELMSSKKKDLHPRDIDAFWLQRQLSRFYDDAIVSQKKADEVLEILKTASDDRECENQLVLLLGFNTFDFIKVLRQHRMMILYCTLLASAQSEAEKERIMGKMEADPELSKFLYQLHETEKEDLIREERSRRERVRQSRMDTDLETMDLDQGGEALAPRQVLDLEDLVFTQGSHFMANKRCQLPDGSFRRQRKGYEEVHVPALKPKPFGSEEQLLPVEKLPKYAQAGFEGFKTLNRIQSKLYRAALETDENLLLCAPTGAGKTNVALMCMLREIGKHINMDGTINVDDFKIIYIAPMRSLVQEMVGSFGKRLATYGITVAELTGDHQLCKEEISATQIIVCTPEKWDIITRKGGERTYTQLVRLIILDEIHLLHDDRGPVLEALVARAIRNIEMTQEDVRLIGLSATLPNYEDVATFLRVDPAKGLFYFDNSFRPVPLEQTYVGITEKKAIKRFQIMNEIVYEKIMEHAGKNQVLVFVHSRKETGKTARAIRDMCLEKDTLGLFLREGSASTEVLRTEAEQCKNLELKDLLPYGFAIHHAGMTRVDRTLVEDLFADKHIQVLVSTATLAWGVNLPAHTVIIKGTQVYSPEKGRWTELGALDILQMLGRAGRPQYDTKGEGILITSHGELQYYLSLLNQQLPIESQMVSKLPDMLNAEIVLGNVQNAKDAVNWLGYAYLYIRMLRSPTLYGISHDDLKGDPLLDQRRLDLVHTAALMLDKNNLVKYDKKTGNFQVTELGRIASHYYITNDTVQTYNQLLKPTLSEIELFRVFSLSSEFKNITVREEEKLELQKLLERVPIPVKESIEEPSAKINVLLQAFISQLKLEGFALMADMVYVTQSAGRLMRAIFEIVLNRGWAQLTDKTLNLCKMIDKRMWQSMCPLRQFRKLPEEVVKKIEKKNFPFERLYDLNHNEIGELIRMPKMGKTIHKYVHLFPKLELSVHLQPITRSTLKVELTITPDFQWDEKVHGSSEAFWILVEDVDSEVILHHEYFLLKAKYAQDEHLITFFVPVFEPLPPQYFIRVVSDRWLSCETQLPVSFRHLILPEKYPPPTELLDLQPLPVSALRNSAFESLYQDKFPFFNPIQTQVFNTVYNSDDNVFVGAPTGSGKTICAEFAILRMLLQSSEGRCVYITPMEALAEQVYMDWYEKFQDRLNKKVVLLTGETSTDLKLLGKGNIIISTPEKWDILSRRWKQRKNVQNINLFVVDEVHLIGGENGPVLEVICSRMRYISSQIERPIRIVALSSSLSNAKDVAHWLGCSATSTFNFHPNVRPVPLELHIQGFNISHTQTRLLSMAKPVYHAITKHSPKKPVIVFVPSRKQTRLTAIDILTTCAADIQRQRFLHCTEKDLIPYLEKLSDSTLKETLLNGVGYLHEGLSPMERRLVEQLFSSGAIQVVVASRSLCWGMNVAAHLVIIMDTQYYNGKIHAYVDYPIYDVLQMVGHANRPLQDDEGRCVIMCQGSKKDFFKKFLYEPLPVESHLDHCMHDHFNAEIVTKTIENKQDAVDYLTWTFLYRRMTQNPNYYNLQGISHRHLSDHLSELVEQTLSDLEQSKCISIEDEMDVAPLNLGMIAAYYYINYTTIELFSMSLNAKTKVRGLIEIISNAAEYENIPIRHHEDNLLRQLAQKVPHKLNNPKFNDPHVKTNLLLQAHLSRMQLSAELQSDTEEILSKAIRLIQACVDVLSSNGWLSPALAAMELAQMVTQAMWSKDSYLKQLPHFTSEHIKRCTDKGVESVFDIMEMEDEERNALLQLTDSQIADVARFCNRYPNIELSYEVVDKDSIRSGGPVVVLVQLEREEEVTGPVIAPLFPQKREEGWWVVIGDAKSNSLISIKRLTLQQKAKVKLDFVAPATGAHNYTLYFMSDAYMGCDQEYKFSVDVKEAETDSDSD

Assay [1] deals with T1, TSSC4^V3-Flag, C-terminally 3xFlag-HBH-tagged, stable cell line (human) (UniProt Q9Y5U2).
T1 sequence: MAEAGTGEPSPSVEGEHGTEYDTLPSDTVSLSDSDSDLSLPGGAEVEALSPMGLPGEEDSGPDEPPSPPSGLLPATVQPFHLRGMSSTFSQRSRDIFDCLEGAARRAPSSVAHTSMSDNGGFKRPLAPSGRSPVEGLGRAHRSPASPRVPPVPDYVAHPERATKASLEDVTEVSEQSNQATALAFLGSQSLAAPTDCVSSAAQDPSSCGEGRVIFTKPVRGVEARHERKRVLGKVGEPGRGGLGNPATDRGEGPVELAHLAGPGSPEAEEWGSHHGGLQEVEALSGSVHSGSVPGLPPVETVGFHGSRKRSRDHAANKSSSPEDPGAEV
The assay is described as follows: affinity purification with mass spectrometry; Flag-IP (Flag M2 affinity gel) from 500 μg nuclear extract of Flp-In T-REx 293 cells stably expressing 3xFlag-HBH-tagged TSSC4^wt or TSSC4^V3; 10 mM HEPES-NaOH pH 7.3, 150 mM NaCl, 10 mM MgCl2, 10 mM KCl, 0.5 mM EGTA, benzonase; 3xFlag peptide elution; label-free LC-MS against unmodified cells.

Assay [2] concerns the target TSSC4^wt-Flag, C-terminally 3xFlag-HBH-tagged, stable cell line (human) (UniProt Q9Y5U2). The assay is described as above.

In the case of CXORF56 (from UniProt Q9H5V9 1-222), the binding entry in assay [1] and in assay [2] was “binds” each time.
Take “PRPF28/DDX23 (from UniProt Q9BUQ8 1-820) (enzyme)”: the binding result in assay [1] is given as “binds”.
“SNRNP200 (endogenous) (from UniProt O75643 1-2136) (enzyme)”: in assay [2], the binding entry is recorded as “binds”.
TXNL4 (human (endogenous in HEK293)): in assay [1], the binding result is given as “no binding”.
